According to paper PMC7198492:
These are yes or no findings as the source states them, for the method shown. Binding seen in cells or lysates may run through a third protein. Some results given as binding are weak or reduced against the parent protein; the word gives no strength.

Protein sequences, listed by entry. Tags and fused reporters are not part of them.
UniProt Q14790: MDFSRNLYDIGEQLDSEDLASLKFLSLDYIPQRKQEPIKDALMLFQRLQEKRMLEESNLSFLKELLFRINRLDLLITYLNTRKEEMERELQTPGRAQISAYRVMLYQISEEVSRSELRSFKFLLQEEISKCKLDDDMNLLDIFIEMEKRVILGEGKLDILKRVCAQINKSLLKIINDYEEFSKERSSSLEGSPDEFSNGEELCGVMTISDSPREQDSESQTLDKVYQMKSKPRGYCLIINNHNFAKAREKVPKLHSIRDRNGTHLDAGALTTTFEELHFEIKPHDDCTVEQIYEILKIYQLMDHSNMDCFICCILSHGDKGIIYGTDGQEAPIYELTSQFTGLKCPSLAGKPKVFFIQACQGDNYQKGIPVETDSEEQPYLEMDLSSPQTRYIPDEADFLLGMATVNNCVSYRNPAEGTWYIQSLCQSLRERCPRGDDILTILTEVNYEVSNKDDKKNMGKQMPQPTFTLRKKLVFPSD

Target: caspase-8 (human, endogenous in HT-29) (human (endogenous in HT-29)) (UniProt Q14790)
Assay: co-IP; whole-cell lysates of control and DAPK1-knockdown HT-29 cells treated with zVAD+BV6+TNF (anti-FADD IP) or zVAD+BV6 (anti-caspase-8 IP); Protein G Mag Sepharose, WCE buffer, overnight at 4 °C; Western blot

B1: MLKL (human, endogenous in HT-29) (protein, UniProt Q8NB16 1-471)
chain: MENLKHIITLGQVIHKRCEEMKYCKKQCRRLGHRVLGLIKPLEMLQDQGKRSVPSEKLTTAMNRFKAALEEANGEIEKFSNRSNICRFLTASQDKILFKDVNRKLSDVWKELSLLLQVEQRMPVSPISQGASWAQEDQQDADEDRRAFQMLRRDNEKIEASLRRLEINMKEIKETLRQYLPPKCMQEIPQEQIKEIKKEQLSGSPWILLRENEVSTLYKGEYHRAPVAIKVFKKLQAGSIAIVRQTFNKEIKTMKKFESPNILRIFGICIDETVTPPQFSIVMEYCELGTLRELLDREKDLTLGKRMVLVLGAARGLYRLHHSEAPELHGKIRSSNFLVTQGYQVKLAGFELRKTQTSMSLGTTREKTDRVKSTAYLSPQELEDVFYQYDVKSEIYSFGIVLWEIATGDIPFQGCNSEKIRKLVAVKRQQEPLGEDCPSELREIIDECRAHDPSVRPSVDEILKKLSTFSK
binding: binds
